Experimental data reported in patent publication US8895035B2, “Alkoxyimino derivative and pest control agent” (Kumiai Chemical Industry Co., Ltd, priority 2010, dated 2014).
Some results were stated once for a whole list of compounds, not compound by compound. At least one compound was matched to its structure with a doubt left.

System: Nilaparvata lugens Stál (brown rice planthopper)
Test: Insecticidal action test for Nilaparvata lugens Stál (immersed sprouting rice)
Assay type: in vivo
Details: 500 ppm active ingredient; sprouting unhulled rice immersed; 3-age larvae; 25° C.; after 6 days
Protocol: A wettable powder prepared based on Formulation Example 2 was diluted with water so that the concentration of active ingredient became 500 ppm. In the diluted formulation were immersed sprouting unhulled rice. The immersed rice was placed in a plastic cup of 60 ml. Into the plastic cup were released 10 3-age larvae of Nilaparvata lugens Stál (brown rice planthopper). The cup was covered with a cap and placed in a thermostat of 25° C. After 6 days, the number of living insects was counted and the mortality of insect was calculated using the calculation formula of Mathematical Expression 1.

Row | SMILES | insect mortality [%]
1 | CON=C(C#N)C(=NOC(C)C)n1cncn1 [I-47] | ≥ 90
2 | CCCCON=C(C#N)C(=NOC(C)C)n1cncn1 [I-51] | ≥ 90
3 | CON=C(C(N)=O)C(=NOC(C)C)n1cncn1 [I-70] | ≥ 90
4 | CC(C)ON=C(C(=NOC(C)(C)C)C(N)=O)n1cncn1 [I-77] | ≥ 90
5 | CC(C)CCON=C(C(N)=O)C(=NOC(C)C)n1cncn1 [I-79] | ≥ 90
6 | CCC(CC)ON=C(C(N)=O)C(=NOC(C)C)n1cncn1 [I-82] | ≥ 90
7 | CCCCCCON=C(C(N)=O)C(=NOC(C)C)n1cncn1 [I-83] | ≥ 90
8 | CC(C)ON=C(C(=NOCCC(C)(C)C)C(N)=O)n1cncn1 [I-84] | ≥ 90
9 | CC(C)ON=C(C(=NOC1CCCC1)C(N)=O)n1cncn1 [I-85] | ≥ 90
10 | CC(C)ON=C(N)C(=NOC(C)C)n1cncn1 [I-119, 1-(2-amino-1,2-diisoprooxyiminoethyl)-1H-1,2,4-triazole] | ≥ 90
11 | CC(C)ON=C(C(N)=NO)C(=NOC(C)C)n1cncn1 [I-188] | ≥ 90
12 | COC(=O)NC(=NOCC(C)C)C(=NOC(C)C)n1cncn1 [I-219, 1-[2-N-methoxycarbonylamino-2-isobutyloxyimino-1-isopropoxyiminoethyl]-1H-1,2,4-triazole] | ≥ 90
13 | CC(C)ON=C(C(=NOC(C)C)n1cncn1)N(C)C [I-220] | ≥ 90
14 | COC(=O)C(=NOC(C)C)C(=NOC(C)C)n1cncn1 [I-221] | ≥ 90
15 | CNC(=O)C(=NOC(C)C)C(=NOC(C)C)n1cncn1 [I-225] | ≥ 90
16 | CC(C)ON=C(C(=O)N(C)C)C(=NOC(C)C)n1cncn1 [I-226] | ≥ 90
17 | CCCCCCCCCCON=C(N)C(=NOCCCCCCCCCC)n1cncn1 [I-234] | ≥ 90
18 | CCON=C(C(N)=NOCC(C)C)C(=NOC(C)C)n1cncn1 [I-262] | ≥ 90
19 | CCON=C(C(Cl)=NOCC(C)C)C(=NOC(C)C)n1cncn1 [I-263] | ≥ 90
20 | CCON=C(C(N)=NOCCC(C)(C)C)C(=NOC(C)C)n1cncn1 [I-264] | ≥ 90
21 | CC(C)ON=C(C(N)=O)C(=NOC(C)C)n1ccnc1 [I-272] | ≥ 90
22 | CCOC(=O)ON=C(N)C(=NOC(C)C)C(=NOC(C)C)n1cncn1 [I-304] | ≥ 90
23 | CC(C)ON=C(C(=O)O)C(=NOC(C)C)n1cncn1 [I-310] | ≥ 90
24 | CC(C)ON=C(C(=O)NCCCl)C(=NOC(C)C)n1cncn1 [I-322] | ≥ 90

Row | SMILES | insect mortality [%]
25 | CC(C)ON=C(C(=NOCc1ccc(C(F)(F)F)cc1)C(N)=O)n1cncn1 [I-332] | ≥ 90
26 | CC(C)ON=C(C(=NOCc1ccc(Cl)cc1)C(N)=O)n1cncn1 [I-336] | ≥ 90
27 | CC(C)ON=C(C(=NOC(C)C)n1cncn1)c1ccc(Cl)cc1 [I-353] | ≥ 90
28 | CC(C)ON=C(C(=NOC(C)C)n1cncn1)c1ccc(F)cc1 [I-354] | ≥ 90
29 | CCOCCON=C(C(N)=O)C(=NOCCOCC)n1cncn1 [I-377] | ≥ 90
30 | CC(ON=C(C(N)=O)C(=NOC(C)C(F)(F)F)n1cncn1)C(F)(F)F (centres unmarked) [I-380] | ≥ 90
31 | CC(C)OCCON=C(C(N)=O)C(=NOCCOC(C)C)n1cncn1 [I-382] | ≥ 90
32 | Cc1cccc(CON=C(C(N)=O)C(=NOCc2cccc(C)c2)n2cncn2)c1 [I-386] | ≥ 90
33 | CC(C)ON=C(C(=O)Nc1ccccc1)C(=NOC(C)C)n1cncn1 [I-389] | ≥ 90
34 | CC(C)ON=C(C(=O)NCC#N)C(=NOC(C)C)n1cncn1 [I-390] | ≥ 90
35 | CC(C)ON=C(CO)C(=NOC(C)C)n1cncn1 [I-391] | ≥ 90
36 | CC(C)ON=C(CCl)C(=NOC(C)C)n1cncn1 [I-392] | ≥ 90
37 | CC(=O)C(=NOC(C)C)C(=NOC(C)C)n1cncn1 [I-394] | ≥ 90
38 | Cc1ccccc1C(=NOC(C)C)C(=NOC(C)C)n1cncn1 [I-398] | ≥ 90
39 | CON=C(C#N)C(=NOC)n1cncn1 [II-47] | ≥ 90
40 | CON=C(C(C#N)=NOC(C)C)n1cncn1 [II-50] | ≥ 90
41 | CON=C(C(N)=O)C(=NOC)n1cncn1 [II-70] | ≥ 90
42 | CCCCON=C(C(N)=O)C(=NOC)n1cncn1 [II-74] | ≥ 90
43 | C=CCON=C(C(N)=O)C(=NOC)n1cncn1 [II-90] | ≥ 90
44 | CON=C(C(N)=NOCC(C)C)n1cncn1 [II-121] | ≥ 90
45 | CON=C(C(N)=NOCCC(C)C)n1cncn1 [II-125] | ≥ 90
46 | CON=C(C(N)=NO)C(=NOC)n1cncn1 [II-185] | ≥ 90
47 | CON=C(C(=NOC(C)C)C(=O)N(C)OC)n1cncn1 [II-227] | ≥ 90
48 | CON=C(C(=NOC(C)C)C(C)(C)C)n1cncn1 [II-232] | ≥ 90

Row | SMILES | insect mortality [%]
49 | CCCCCCCCCCON=C(C(N)=O)C(=NOC)n1cncn1 [II-238] | ≥ 90
50 | CON=C(C(=NOCc1ccccc1)C(N)=O)n1cncn1 [II-245] | ≥ 90
51 | CON=C(C(=NOC/C=C/c1ccccc1)C(N)=O)n1cncn1 [II-247] | ≥ 90
52 | COCCON=C(C#N)C(=NOC)n1cncn1 [II-268] | ≥ 90
53 | COCCON=C(C(N)=O)C(=NOC)n1cncn1 [II-269] | ≥ 90
54 | C=CCCON=C(C(N)=O)C(=NOC)n1cncn1 [II-279] | ≥ 90
55 | CON=C(C(C#N)=NOCC1CO1)n1cncn1 (centres unmarked) [II-282] | ≥ 90
56 | CON=C(C(=NOCC1CO1)C(N)=O)n1cncn1 (centres unmarked) [II-283] | ≥ 90
57 | CON=C(C(=NOCC1CC1)NS(=O)(=O)NC(=O)OC(C)(C)C)n1cncn1 [II-323] | ≥ 90
58 | CON=C(C(=NOCc1cccnc1)C(N)=O)n1cncn1 [II-339] | ≥ 90
59 | CON=C(C(=NOCc1ccsc1)C(N)=O)n1cncn1 [II-341] | ≥ 90
60 | CON=C(C(C#N)=NOCC1(C#N)CC1)n1cncn1 [II-342] | ≥ 90
61 | CON=C(C(=NOCc1cccs1)C(N)=O)n1cncn1 [II-348] | ≥ 90
62 | CON=C(C(=NOCC(C)(C(F)(F)F)C(F)(F)F)C(N)=O)n1cncn1 [II-350] | ≥ 90
63 | CON=C(C(=NOCc1ccoc1)C(N)=O)n1cncn1 [II-354] | ≥ 90
64 | CON=C(C(=NOCCOCC(F)(F)F)C(N)=O)n1cncn1 [II-358] | ≥ 90
65 | CON=C(C(=NOCCOC(C)C)C(N)=O)n1cncn1 [II-362] | ≥ 90
66 | CON=C(C(=NOCc1cccc(F)c1)C(N)=O)n1cncn1 [II-366] | ≥ 90
67 | CON=C(C(=NOCc1ccc(F)cc1)C(N)=O)n1cncn1 [II-368] | ≥ 90
68 | CON=C(C(=NOCc1ccco1)C(N)=O)n1cncn1 [II-370] | ≥ 90
69 | CON=C(C(=NOCC(F)(F)C(F)(F)C(F)(F)C(F)F)C(N)=O)n1cncn1 [II-380] | ≥ 90
70 | CON=C(C(=NOCC(F)(F)C(F)(F)F)C(N)=O)n1ccnc1.CS(=O)(=O)O [II-381] | ≥ 90
71 | CCON=C(C(C#N)=NOC)n1cncn1 [III-47] | ≥ 90
